Source: patent US20110039783A1, “PEPTIDE HAVING HYPOTENSIVE ACTIVITY” (DAIICHI SANKYO COMPANY LIMITED, priority 2007, published 2011)
Some results were stated once for a whole list of compounds, not compound by compound. Where no end group is shown, it is not given here.

System: blood pressure of anesthetized Sprague-Dawley IGS male rats
Assay: Hypotensive activity in anesthetized rats, invasive blood pressure measurement after intravenous administration
Format: in vivo, rat
Conditions: Tables 2 and 3
Procedure: 50 mg/kg pentobarbital sodium was intraperitoneally administered to 8- to 10-week-old Sprague-Dawley IGS male rats (Charles River Laboratories Japan, Inc.) for anesthesia. Thereafter, a tracheal cannula (PE 250), a femoral vein cannula (PE50), and a femoral artery cannula (PESO) were inserted into each rat. […]
Each peptide was dissolved in a concentration of 1 mM or 10 mM in a 0.1% acetic acid solution to prepare a peptide solution. […] Each peptide was intravenously administered via the femoral vein cannula, and the systolic blood pressure, diastolic blood pressure, and heart rate were then measured.
Various HC021 derivative peptides were synthesized in accordance with Example 1, and such peptide was then administered to each rat at a dose of 10 nmol/rat, 30 nmol/rat, or 100 mol/rat by the method described in Example 2. Thereafter, the hypotensive activity of each derivative peptide was measured. […] The strength of such activity was determined using a median of activity in repeated experiments. […]
Various HC021 peptide sequence-substituted products were synthesized in accordance with Example 1, and their hypotensive activity was then measured according to the method of Example 3.

Substance: LFERRLQAYFKNGAEDESAEAFPLEF-NH2 [Compound 48]
- hypotensive activity on extension, modification or substitution of the sequence (conclusion in words): maintains the activity
